Measured values taken from article PMC11861356.
Results are given in words; binding and its absence hold for the method and conditions named. Binding seen in cells or lysates may run through a third protein. Some binding calls cover weakened binding; strength is not graded here.

By UniProt entry, the sequences of proteins in these tests, tags left out.
UniProt P42685: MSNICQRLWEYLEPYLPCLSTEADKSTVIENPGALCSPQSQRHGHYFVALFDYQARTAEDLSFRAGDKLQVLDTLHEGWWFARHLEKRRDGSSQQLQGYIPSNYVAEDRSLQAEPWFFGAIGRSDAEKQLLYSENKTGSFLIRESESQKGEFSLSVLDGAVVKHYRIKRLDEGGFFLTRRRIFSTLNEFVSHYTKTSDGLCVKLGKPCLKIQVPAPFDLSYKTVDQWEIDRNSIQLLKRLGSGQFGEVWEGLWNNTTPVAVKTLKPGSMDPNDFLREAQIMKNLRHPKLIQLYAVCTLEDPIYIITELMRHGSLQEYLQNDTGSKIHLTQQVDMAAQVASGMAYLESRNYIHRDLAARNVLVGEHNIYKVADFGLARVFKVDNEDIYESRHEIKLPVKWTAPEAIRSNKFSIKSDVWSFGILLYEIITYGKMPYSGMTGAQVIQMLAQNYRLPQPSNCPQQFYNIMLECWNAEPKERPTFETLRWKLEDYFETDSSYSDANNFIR

T1: IRF3, expressed in HEK293T cells (UniProt Q14653)
T1 sequence: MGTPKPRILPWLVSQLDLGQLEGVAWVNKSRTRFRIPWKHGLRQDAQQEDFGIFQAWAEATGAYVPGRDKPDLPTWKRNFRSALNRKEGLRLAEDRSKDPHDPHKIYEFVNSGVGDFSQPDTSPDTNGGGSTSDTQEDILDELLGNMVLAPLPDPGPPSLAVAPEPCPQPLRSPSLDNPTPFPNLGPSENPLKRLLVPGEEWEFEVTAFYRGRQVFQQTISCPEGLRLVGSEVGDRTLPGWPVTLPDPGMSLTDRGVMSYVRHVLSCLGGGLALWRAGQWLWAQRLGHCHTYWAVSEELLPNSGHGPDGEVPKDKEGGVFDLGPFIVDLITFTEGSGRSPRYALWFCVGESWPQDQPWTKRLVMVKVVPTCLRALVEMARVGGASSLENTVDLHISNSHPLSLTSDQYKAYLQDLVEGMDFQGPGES

T2: TBK1, expressed in HEK293T cells (UniProt Q9UHD2)
T2 sequence: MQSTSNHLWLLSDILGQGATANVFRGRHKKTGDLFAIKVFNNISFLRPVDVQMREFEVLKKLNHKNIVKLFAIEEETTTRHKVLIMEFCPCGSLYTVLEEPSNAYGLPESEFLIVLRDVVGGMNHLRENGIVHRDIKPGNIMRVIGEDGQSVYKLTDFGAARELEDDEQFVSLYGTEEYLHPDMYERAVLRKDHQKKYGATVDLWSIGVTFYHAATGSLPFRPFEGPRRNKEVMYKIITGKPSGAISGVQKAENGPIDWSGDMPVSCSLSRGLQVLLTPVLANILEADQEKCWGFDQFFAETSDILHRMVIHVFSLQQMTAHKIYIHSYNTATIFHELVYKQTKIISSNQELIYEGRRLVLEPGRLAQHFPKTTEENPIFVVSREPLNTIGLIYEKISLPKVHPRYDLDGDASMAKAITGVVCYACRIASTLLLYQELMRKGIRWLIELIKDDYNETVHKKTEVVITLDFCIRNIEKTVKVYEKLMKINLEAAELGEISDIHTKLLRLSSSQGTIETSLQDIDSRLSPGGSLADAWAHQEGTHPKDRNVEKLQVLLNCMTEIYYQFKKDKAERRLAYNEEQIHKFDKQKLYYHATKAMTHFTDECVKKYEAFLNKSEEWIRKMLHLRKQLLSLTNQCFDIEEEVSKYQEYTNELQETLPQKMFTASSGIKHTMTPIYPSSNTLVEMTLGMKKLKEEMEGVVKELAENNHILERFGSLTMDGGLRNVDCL

B1: TBK1, expressed in HEK293T cells (enzyme, UniProt Q9UHD2 1-729)
chain: MQSTSNHLWLLSDILGQGATANVFRGRHKKTGDLFAIKVFNNISFLRPVDVQMREFEVLKKLNHKNIVKLFAIEEETTTRHKVLIMEFCPCGSLYTVLEEPSNAYGLPESEFLIVLRDVVGGMNHLRENGIVHRDIKPGNIMRVIGEDGQSVYKLTDFGAARELEDDEQFVSLYGTEEYLHPDMYERAVLRKDHQKKYGATVDLWSIGVTFYHAATGSLPFRPFEGPRRNKEVMYKIITGKPSGAISGVQKAENGPIDWSGDMPVSCSLSRGLQVLLTPVLANILEADQEKCWGFDQFFAETSDILHRMVIHVFSLQQMTAHKIYIHSYNTATIFHELVYKQTKIISSNQELIYEGRRLVLEPGRLAQHFPKTTEENPIFVVSREPLNTIGLIYEKISLPKVHPRYDLDGDASMAKAITGVVCYACRIASTLLLYQELMRKGIRWLIELIKDDYNETVHKKTEVVITLDFCIRNIEKTVKVYEKLMKINLEAAELGEISDIHTKLLRLSSSQGTIETSLQDIDSRLSPGGSLADAWAHQEGTHPKDRNVEKLQVLLNCMTEIYYQFKKDKAERRLAYNEEQIHKFDKQKLYYHATKAMTHFTDECVKKYEAFLNKSEEWIRKMLHLRKQLLSLTNQCFDIEEEVSKYQEYTNELQETLPQKMFTASSGIKHTMTPIYPSSNTLVEMTLGMKKLKEEMEGVVKELAENNHILERFGSLTMDGGLRNVDCL

Key:
Test in all cases: co-IP
[1] = target: T1, IRF3, expressed in HEK293T cells
[2] = target: T2, TBK1, expressed in HEK293T cells
[3] = target: Fyn-related kinase (Frk), expressed in HEK293T cells (UniProt P42685)

Molecule	binding [1]	binding [2]	binding [3]
Fyn-related kinase (Frk), expressed in HEK293T cells (from UniProt P42685 1-505) (enzyme)	binds	binds	–
B1	–	–	binds
